Test results reported in article PMC8384837.
Positions count from the first letter of the chain named. This is one part of the list. For some assays here: At the low end of the ranking the order means little.

Experiments:
Conditions in all cases: yeast three-hybrid, YBZ-1, SC-Leu-His + 0.5 mM 3-AT, 4 days
[1] = target: T1, PUM1 PUF domain R5-WRD C1007W + Q1011D (Homo sapiens) (UniProt Q14671)
T1 sequence: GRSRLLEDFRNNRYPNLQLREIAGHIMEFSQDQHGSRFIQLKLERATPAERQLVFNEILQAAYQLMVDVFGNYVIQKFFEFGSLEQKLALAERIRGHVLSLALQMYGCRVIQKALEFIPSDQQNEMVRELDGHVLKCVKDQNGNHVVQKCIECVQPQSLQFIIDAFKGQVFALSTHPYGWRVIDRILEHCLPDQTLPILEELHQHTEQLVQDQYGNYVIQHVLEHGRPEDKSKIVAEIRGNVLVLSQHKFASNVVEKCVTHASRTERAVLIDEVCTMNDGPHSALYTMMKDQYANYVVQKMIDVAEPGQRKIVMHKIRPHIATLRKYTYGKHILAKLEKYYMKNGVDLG

[2] = target: T2, PUM1 PUF domain R5-WSR C1007W + R1008S + Q1011R (UniProt Q14671)
T2 sequence: T1 sequence with R181S, D184R

[3] = target: T3, PUM1 PUF domain R6-AFL N1043A + Y1044F + Q1047L (Homo sapiens) (UniProt Q14671)
T3 sequence: T1 sequence with W180C, D184Q, N216A, Y217F, Q220L

[4] = target: T4, PUM1 PUF domain R6-AWV N1043A + Y1044W + Q1047V (Homo sapiens) (UniProt Q14671)
T4 sequence: T1 sequence with W180C, D184Q, N216A, Y217W, Q220V

[5] = target: T5, PUM1 PUF domain R6-AWR N1043A + Y1044W + Q1047R (UniProt Q14671)
T5 sequence: T1 sequence with W180C, D184Q, N216A, Y217W, Q220R

[6] = target: T6, PUM1 PUF domain R6-AYR N1043A + Q1047R (UniProt Q14671)
T6 sequence: T1 sequence with W180C, D184Q, N216A, Q220R

[7] = target: T7, PUM1 PUF domain R6-CFK N1043C + Y1044F + Q1047K (UniProt Q14671)
T7 sequence: T1 sequence with W180C, D184Q, N216C, Y217F, Q220K

[8] = target: T8, PUM1 PUF domain R6-CFR N1043C + Y1044F + Q1047R (UniProt Q14671)
T8 sequence: T1 sequence with W180C, D184Q, N216C, Y217F, Q220R

[9] = target: T9, PUM1 PUF domain R6-CFY N1043C + Y1044F + Q1047Y (UniProt Q14671)
T9 sequence: T1 sequence with W180C, D184Q, N216C, Y217F, Q220Y

[10] = target: T10, PUM1 PUF domain R6-CHR N1043C + Y1044H + Q1047R (UniProt Q14671)
T10 sequence: T1 sequence with W180C, D184Q, N216C, Y217H, Q220R

[11] = target: T11, PUM1 PUF domain R6-CWC N1043C + Y1044W + Q1047C (UniProt Q14671)
T11 sequence: T1 sequence with W180C, D184Q, N216C, Y217W, Q220C

[12] = target: T12, PUM1 PUF domain R6-CWG N1043C + Y1044W + Q1047G (Homo sapiens) (UniProt Q14671)
T12 sequence: T1 sequence with W180C, D184Q, N216C, Y217W, Q220G

[13] = target: T13, PUM1 PUF domain R6-CWV N1043C + Y1044W + Q1047V (UniProt Q14671)
T13 sequence: T1 sequence with W180C, D184Q, N216C, Y217W, Q220V

[14] = target: T14, PUM1 PUF domain R6-CWW N1043C + Y1044W + Q1047W (UniProt Q14671)
T14 sequence: T1 sequence with W180C, D184Q, N216C, Y217W, Q220W

[15] = target: T15, PUM1 PUF domain R6-CYR N1043C + Q1047R (UniProt Q14671)
T15 sequence: T1 sequence with W180C, D184Q, N216C, Q220R

[16] = target: T16, PUM1 PUF domain R6-CYV N1043C + Q1047V (UniProt Q14671)
T16 sequence: T1 sequence with W180C, D184Q, N216C, Q220V

[17] = target: T17, PUM1 PUF domain R6-DWG N1043D + Y1044W + Q1047G (UniProt Q14671)
T17 sequence: T1 sequence with W180C, D184Q, N216D, Y217W, Q220G

[18] = target: T18, PUM1 PUF domain R6-AFR N1043A + Y1044F + Q1047R (Homo sapiens) (UniProt Q14671)
T18 sequence: T1 sequence with W180C, D184Q, N216A, Y217F, Q220R

[19] = target: T19, PUM1 PUF domain R6-AWR N1043A + Y1044W + Q1047R (Homo sapiens) (UniProt Q14671)
T19 sequence: T1 sequence with W180C, D184Q, N216A, Y217W, Q220R

[20] = target: T20, PUM1 PUF domain R6-CWW N1043C + Y1044W + Q1047W (Homo sapiens) (UniProt Q14671)
T20 sequence: T1 sequence with W180C, D184Q, N216C, Y217W, Q220W

With “GGCUAGAACUAGUGGAUCCCCCGGCGCCCGGCGGCUCGAGCCCGGGUAAGUGUAAAUAGUCUGCAUGCCGCCGGGCGCCAUGCCUGCAGGUCGACUCUAGAAAACAUG” the binding signal (log2 enrichment (interaction score)) [1] was -1.4, the binding signal (log2 enrichment (interaction score)) [2] was -6.51 and the binding signal (log2 enrichment (interaction score)) [3] was 0.25. The binding signal (log2 enrichment (interaction score)) [4] was -0.32.

“GGCUAGAACUAGUGGAUCCCCCGGCGCCCGGCGGCUCGAGCCCGGGUAAGUGGAAAUAGUCUGCAUGCCGCCGGGCGCCAUGCCUGCAGGUCGACUCUAGAAAACAUG” was tested, and the binding signal (log2 enrichment (interaction score)) [5] was < -9.9, the binding signal (log2 enrichment (interaction score)) [6] was -5.67 and the binding signal (log2 enrichment (interaction score)) [7] was < -8.42. For the same sequence, the binding signal (log2 enrichment (interaction score)) [8] was < -8.12, the binding signal (log2 enrichment (interaction score)) [9] was < -9.09 and the binding signal (log2 enrichment (interaction score)) [10] was < -8.76. The binding signal (log2 enrichment (interaction score)) [11] was < -6.53, the binding signal (log2 enrichment (interaction score)) [12] was -5.21 and the binding signal (log2 enrichment (interaction score)) [13] was < -8.26. The binding signal (log2 enrichment (interaction score)) [14] was < -8.53, the binding signal (log2 enrichment (interaction score)) [15] was -3.83 and the binding signal (log2 enrichment (interaction score)) [16] was < -9.12. The binding signal (log2 enrichment (interaction score)) [17] was < -9.36.

With “GGCUAGAACUAGUGGAUCCCCCGGCGCCCGGCGGCUCGAGCCCGGGUAAGUGAAAAUAGUCUGCAUGCCGCCGGGCGCCAUGCCUGCAGGUCGACUCUAGAAAACAUG” the binding signal (log2 enrichment (interaction score)) [18] was -1.36, the binding signal (log2 enrichment (interaction score)) [19] was -2.42 and the binding signal (log2 enrichment (interaction score)) [20] was -3.02.
